Experimental data: PubChem BioAssay AID1259308 (NCATS, 2017)
Purpose: 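Candidate targets for better recombinant protein yield in mammalian cells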 (primary screen). Cell system: human HEK293 embryonic kidney cells stably expressing firefly luciferase (HEK-CMV-Luc2-Hygro). Reagents: single siRNA against human genes, 0.8 pmol siRNA per well. Duration: 72 h. Read-out: 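Reporter luminescence and viable-cell signal on separate replicate plates, given as percent of non-targeting control and median/MAD z-scores, plus per-cell luciferase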. Reading the numbers: total luciferase, z-score: higher = more reporter protein produced. Active means: 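Active when the median/MAD z-score for overall luciferase is greater than 3; a gene was taken forward for validation with new siRNAs if at least two of its three siRNAs passed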. Calls: active = raised luciferase; inactive = no rise.
Here is one part, drawn at random, of about 59,000 reagents. About 1,510 of them (2.6%) were called active. 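Calls use total luciferase alone and ignore viability, so some active siRNAs may act by altering cell number.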 A number with no mark means an inactive call. Reagents against one gene are numbered here. Further read-outs or replicates are left out here.

ACADM (acyl-CoA dehydrogenase medium chain) #1
- total luciferase, z-score: -0.682

ACADM (acyl-CoA dehydrogenase medium chain) #2
- total luciferase, z-score: -0.2

ACADM (acyl-CoA dehydrogenase medium chain) #3
- total luciferase, z-score: 0.0587

NRXN3 (neurexin 3) #1
- total luciferase, z-score: 2.64

NRXN3 (neurexin 3) #2
- total luciferase, z-score: 2.92

NRXN3 (neurexin 3) #3
- total luciferase, z-score: -0.742

ADCYAP1 (adenylate cyclase activating polypeptide 1) #1
- total luciferase, z-score: -0.639

ADCYAP1 (adenylate cyclase activating polypeptide 1) #2
- total luciferase, z-score: 1.5

ADCYAP1 (adenylate cyclase activating polypeptide 1) #3
- total luciferase, z-score: 1.22

SIVA1 (SIVA1 apoptosis inducing factor) #1
- total luciferase, z-score: -0.5

SIVA1 (SIVA1 apoptosis inducing factor) #2
- total luciferase, z-score: -0.653

SIVA1 (SIVA1 apoptosis inducing factor) #3
- total luciferase, z-score: 0.327

SPACA5B (sperm acrosome associated 5B) #1
- total luciferase, z-score: -0.763

SPACA5B (sperm acrosome associated 5B) #2
- total luciferase, z-score: 0.88

SPACA5B (sperm acrosome associated 5B) #3
- total luciferase, z-score: 0.33

CHTOP (chromatin target of PRMT1) #1
- total luciferase, z-score: 0.196

CHTOP (chromatin target of PRMT1) #2
- total luciferase, z-score: -0.26

CHTOP (chromatin target of PRMT1) #3
- total luciferase, z-score: -0.205

ZNG1E (Zn regulated GTPase metalloprotein activator 1E) #1
- total luciferase, z-score: 3.54 (active)

ZNG1E (Zn regulated GTPase metalloprotein activator 1E) #2
- total luciferase, z-score: -0.801

ZNG1E (Zn regulated GTPase metalloprotein activator 1E) #3
- total luciferase, z-score: -0.487

OR6C6 (olfactory receptor family 6 subfamily C member 6) #1
- total luciferase, z-score: 0.732

OR6C6 (olfactory receptor family 6 subfamily C member 6) #2
- total luciferase, z-score: 0.22

OR6C6 (olfactory receptor family 6 subfamily C member 6) #3
- total luciferase, z-score: 0.748

GALNS (galactosamine (N-acetyl)-6-sulfatase) #1
- total luciferase, z-score: -0.225

GALNS (galactosamine (N-acetyl)-6-sulfatase) #2
- total luciferase, z-score: 0.119

GALNS (galactosamine (N-acetyl)-6-sulfatase) #3
- total luciferase, z-score: 0.297

CCR9 (C-C motif chemokine receptor 9) #1
- total luciferase, z-score: 0.727

CCR9 (C-C motif chemokine receptor 9) #2
- total luciferase, z-score: 0.662

CCR9 (C-C motif chemokine receptor 9) #3
- total luciferase, z-score: -0.0793

GBP5 (guanylate binding protein 5) #1
- total luciferase, z-score: -2.32

GBP5 (guanylate binding protein 5) #2
- total luciferase, z-score: 1.15

GBP5 (guanylate binding protein 5) #3
- total luciferase, z-score: -0.889

STK11IP (serine/threonine kinase 11 interacting protein) #1
- total luciferase, z-score: -1.35

STK11IP (serine/threonine kinase 11 interacting protein) #2
- total luciferase, z-score: 0.841

STK11IP (serine/threonine kinase 11 interacting protein) #3
- total luciferase, z-score: -0.398

KDM3A (lysine demethylase 3A) #1
- total luciferase, z-score: 0.698

KDM3A (lysine demethylase 3A) #2
- total luciferase, z-score: 0.00946

KDM3A (lysine demethylase 3A) #3
- total luciferase, z-score: 0.0168

TBC1D2 (TBC1 domain family member 2) #1
- total luciferase, z-score: 0.405

TBC1D2 (TBC1 domain family member 2) #2
- total luciferase, z-score: -0.316

TBC1D2 (TBC1 domain family member 2) #3
- total luciferase, z-score: 0.156

Called active, among the entries above:
ZNG1E (Zn regulated GTPase metalloprotein activator 1E) #1
- total luciferase, z-score: 3.54 (active)
